The campaign covered roughly 400,000 compounds. About 13,000 (3.2%) were called active. The inconclusive results got no clear call from the source; some entries with a clear call stand among them for comparison. Calls come from the whole dose curve; as a rule, active = well fitted cell-killing curve with a large enough effect; inconclusive = small, poorly fitted or top-dose-only effect, or effect the other way; inactive = flat fitted curve, though single readings scatter. Potencies of inconclusive entries are doubtful fits and often do not repeat.
Experiment: qHTS assay for MDR1-selective chemotherapeutics: Primary screen using the drug-selected MDR subline cells KB-V1; note: nearly all actives have a fitted effect of over 60% in size
Conditions: KB-V1 MDR cells viability, CellTiter-Glo, 72 h; activity change, negative = cytotoxicity: at 46.1 µM (top of the series)
Outline: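 Following 72 h at 37 degrees C with compound, KB-V1 cell viability was read by CellTiter-Glo luminescence, medium being phenol-red-free DMEM plus 10% FBS; concentration-response parameters came from normalized, curve-fitted qHTS data.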
% is set by controls: 0 for no effect and ±100 for the full control effect; potency is the fitted concentration of half-maximal effect.

| Compound | Potency | activity change, negative = cytotoxicity |
| --- | --- | --- |
| CCCCN(C)C(=O)c1sc(=O)n(Cc2ccccc2F)c1C | inconclusive: 20.6 µM [cytotoxic, single point] |  |
| CCOC(=O)c1cc(-c2ccccc2)n(-c2cccc(C(=O)Nc3ccc(F)c(F)c3)c2)c1C | inconclusive: 18.4 µM [cytotoxic, single point] |  |
| COCCn1c(C)cc(C(=O)CSc2cc(C)c3ccccc3n2)c1C | active: 2.31 µM |  |
| CC(C)NC(=O)CCn1c(=S)oc2ccccc21 |  | inactive: 12.9% |
| COc1c(C)cc(S(=O)(=O)NCCc2c(C)[nH]c3ccccc23)c(C)c1C |  | inactive: -28.6% |
| COc1ccc(OC)c(/C=N/NC(=O)c2cc(-c3ccc(C)o3)nc3ccccc23)c1 | inconclusive: 18.4 µM [cytotoxic, partial curve, poor fit] |  |
| CCOC(=O)N1CCc2c(sc(NC(=O)c3ccc(S(=O)(=O)N4CCCC4)cc3)c2C#N)C1 |  | inactive: -1.96% |
| Cc1nc2ccccc2n1-c1nc(-c2ccco2)cc(C(F)(F)F)n1 |  | inactive: 17.3% |
| COC(=O)N/N=C\c1cc(Br)ccc1OCc1ccccc1 | inconclusive: 10.3 µM [cytotoxic, partial curve] |  |
| Nc1ccc2nn(-c3ccccc3)nc2c1 |  | inactive: -2.03% |
| Cc1ccc(Cc2c(-c3ccccc3)nc3ccc(Cl)cn23)cc1 | inconclusive: 16.4 µM [cytotoxic, partial curve, poor fit] |  |
| CCOC(=O)C1=C(C)N=C2SC=C(C)N2C1c1ccc(OC)cc1 (stereo not drawn) | inconclusive: 23.1 µM [cytotoxic, partial curve, poor fit] |  |
| Cc1cc(Nc2cccc([N+](=O)[O-])c2)n2c(nc3ccccc32)c1C#N | active: 3.26 µM |  |
| NC(=S)n1[nH]c(-c2ccc([N+](=O)[O-])cc2)c(N=Nc2cccc(Cl)c2)c1=O | inconclusive: 18.4 µM [cytotoxic, single point] |  |
| Cn1cccc1/C=N/NC(=O)Cn1cnc2ccccc21 |  | inactive: -3.13% |
| CCc1ccccc1NC(=O)CSc1nnc(-c2nonc2NC(C)=O)n1C |  | inactive: 3.12% |
| COc1ccc(C2=CC(=O)CC(c3ccc(F)cc3)C2)cn1 (stereo not drawn) |  | inactive: 23.4% |
| COCC(=O)N(C)C1(c2nnnn2CCOC(=O)Nc2cccc3ccccc23)CCCC1 | inconclusive: 23.1 µM [rising, partial curve, poor fit] |  |
| CSc1ccc(S(=O)(=O)NC2CCCCCC2)cc1 | inconclusive: 29.1 µM [cytotoxic, single point] |  |
| COc1ccc(NC(=O)c2cc(C(C)C)on2)cc1OC | active: 20.6 µM |  |
| Cc1ccc(NCc2nnc(SCC(=O)NCCc3ccccc3)n2C)cc1 |  | inconclusive: -26.8% |
| O=C(OCc1nnc(-c2ccccc2)o1)C1CC(=O)N(c2ccccc2)C1 (stereo not drawn) | inconclusive: 29.1 µM [rising, single point] |  |
| COc1ccc(OCC(=O)NCCCNC(=O)COc2ccc(OC)cc2)cc1 | inconclusive: 29.1 µM [cytotoxic, single point] |  |
| NC(=O)C1CCN(C(=O)CCSCc2ccccc2)CC1 |  | inactive: 0% |
| COc1cccc(C2=CC(=O)C[C@H](c3ccc4c(c3)OCO4)C2)c1OC |  | inactive: 6.83% |

Nothing new here: an excerpt of the list.

| Compound | Potency | activity change, negative = cytotoxicity |
| --- | --- | --- |
| CCOC(=O)c1cc(-c2ccccc2)n(-c2cccc(C(=O)Nc3ccc(F)c(F)c3)c2)c1C | inconclusive: 18.4 µM [cytotoxic, single point] |  |
| COCCn1c(C)cc(C(=O)CSc2cc(C)c3ccccc3n2)c1C | active: 2.31 µM |  |
| CC(C)NC(=O)CCn1c(=S)oc2ccccc21 |  | inactive: 12.9% |
| COc1c(C)cc(S(=O)(=O)NCCc2c(C)[nH]c3ccccc23)c(C)c1C |  | inactive: -28.6% |
| COc1ccc(OC)c(/C=N/NC(=O)c2cc(-c3ccc(C)o3)nc3ccccc23)c1 | inconclusive: 18.4 µM [cytotoxic, partial curve, poor fit] |  |
| CCOC(=O)N1CCc2c(sc(NC(=O)c3ccc(S(=O)(=O)N4CCCC4)cc3)c2C#N)C1 |  | inactive: -1.96% |
| Cc1nc2ccccc2n1-c1nc(-c2ccco2)cc(C(F)(F)F)n1 |  | inactive: 17.3% |
| COC(=O)N/N=C\c1cc(Br)ccc1OCc1ccccc1 | inconclusive: 10.3 µM [cytotoxic, partial curve] |  |
| Nc1ccc2nn(-c3ccccc3)nc2c1 |  | inactive: -2.03% |
| Cc1ccc(Cc2c(-c3ccccc3)nc3ccc(Cl)cn23)cc1 | inconclusive: 16.4 µM [cytotoxic, partial curve, poor fit] |  |
| CCOC(=O)C1=C(C)N=C2SC=C(C)N2C1c1ccc(OC)cc1 (stereo not drawn) | inconclusive: 23.1 µM [cytotoxic, partial curve, poor fit] |  |
| Cc1cc(Nc2cccc([N+](=O)[O-])c2)n2c(nc3ccccc32)c1C#N | active: 3.26 µM |  |
| NC(=S)n1[nH]c(-c2ccc([N+](=O)[O-])cc2)c(N=Nc2cccc(Cl)c2)c1=O | inconclusive: 18.4 µM [cytotoxic, single point] |  |
| Cn1cccc1/C=N/NC(=O)Cn1cnc2ccccc21 |  | inactive: -3.13% |
| CCc1ccccc1NC(=O)CSc1nnc(-c2nonc2NC(C)=O)n1C |  | inactive: 3.12% |
| COc1ccc(C2=CC(=O)CC(c3ccc(F)cc3)C2)cn1 (stereo not drawn) |  | inactive: 23.4% |
| COCC(=O)N(C)C1(c2nnnn2CCOC(=O)Nc2cccc3ccccc23)CCCC1 | inconclusive: 23.1 µM [rising, partial curve, poor fit] |  |
| CSc1ccc(S(=O)(=O)NC2CCCCCC2)cc1 | inconclusive: 29.1 µM [cytotoxic, single point] |  |
| COc1ccc(NC(=O)c2cc(C(C)C)on2)cc1OC | active: 20.6 µM |  |
| Cc1ccc(NCc2nnc(SCC(=O)NCCc3ccccc3)n2C)cc1 |  | inconclusive: -26.8% |
| O=C(OCc1nnc(-c2ccccc2)o1)C1CC(=O)N(c2ccccc2)C1 (stereo not drawn) | inconclusive: 29.1 µM [rising, single point] |  |
| COc1ccc(OCC(=O)NCCCNC(=O)COc2ccc(OC)cc2)cc1 | inconclusive: 29.1 µM [cytotoxic, single point] |  |

(cont.)

| Compound | Potency | activity change, negative = cytotoxicity |
| --- | --- | --- |
| COc1ccc(/C=C(/NC(=O)c2ccccc2)C(=O)NCc2ccco2)cc1 |  | inconclusive: 19.8% |
| COc1ccc(C(=O)CCc2ccc(OC)c(OC)c2)cc1 |  | inactive: 16.5% |
| CCCOc1ccccc1Cn1c(=O)sc2ccccc21 |  | inactive: -6.43% |
| O=C(CSc1ncnc2sc3c(c12)CCC3)NCC1CCCO1 (stereo not drawn) |  | inactive: 1.11% |
| O=C(/C=C/c1cccc(C(F)(F)F)c1)N1CCN(c2ccccn2)CC1 | inconclusive: 29.1 µM [cytotoxic, single point] |  |
| Cc1ccc(Cl)cc1Nc1nc2ccccc2n2c(C)nnc12 | inconclusive: 18.4 µM [rising, single point] |  |
| O=C1NC(c2ccccc2)Oc2ccccc21 (stereo not drawn) | inconclusive: 0.206 µM [cytotoxic, full curve] |  |
| CCOC(=O)CN1CCc2c(C)nc3c(-c4ccc(OC)c(OC)c4)cnn3c21 | active: 8.2 µM |  |
| O=C1C=C(c2ccc(F)cc2OCc2ccccc2)C[C@@H](c2ccc(F)cc2)C1 | inconclusive: 16.4 µM [cytotoxic, partial curve, poor fit] |  |
| CC(C)(C)CNc1cc(N2CCCC2)ccc1[N+](=O)[O-] | inconclusive: 25.9 µM [cytotoxic, single point] |  |
| CCCCc1nn2c(=O)cc(COC(=O)c3ccccc3NC(=O)C(C)(C)C)nc2s1 | inconclusive: 4.11 µM [cytotoxic, full curve, poor fit] |  |
| O=C1C2C(C(=O)N1CCc1ccccc1)C1C=CC2C12CC2 (stereo not drawn) | inconclusive: 16.4 µM [cytotoxic, partial curve] |  |
| CCOC(=O)N1CCC(Nc2c(OCC)c(=O)c2=O)CC1 | inconclusive: 29.1 µM [rising, single point] |  |
| COc1cccc(=O)c2c(C)n(-c3cc(C)cc(C)c3)c(C)c12 |  | inactive: -3.94% |
| COc1cc(C=O)ccc1OCC(=O)Nc1cccc(S(=O)(=O)N(C)c2ccccc2)c1 |  | inactive: 7.7% |
| OC(Cn1ccnc1)c1ccc(Cl)cc1Cl (stereo not drawn) | inconclusive: 29.1 µM [cytotoxic, single point] |  |
| COC(=O)C(NC(=O)c1ccc(F)cc1)(Nc1ncc(S(=O)(=O)c2ccc([N+](=O)[O-])cc2)s1)C(F)(F)F (stereo not drawn) | inconclusive: 14.6 µM [cytotoxic, partial curve] |  |
| COC(=O)[C@H](C)NS(=O)(=O)C1CC1 |  | inactive: -2.52% |
| CCOC(=O)c1[nH]c(C)c(C(=O)NCCc2ccc(OC)cc2)c1C | active: 14.6 µM |  |
| Cc1cc(C(=O)CSc2nncs2)c(C)n1-c1ccc2c(c1)OCO2 | active: 16.4 µM |  |
| CCN(CC)c1ccc(C2CC(=O)NC3=C2C(=O)CC(C)(C)C3)cc1 (stereo not drawn) | inconclusive: 18.4 µM [cytotoxic, partial curve, poor fit] |  |
| CCN(CC)C(=O)CC(c1ccc(N(C)C)cc1)c1c(OC)cc(OC)c2c(-c3ccccc3)cc(=O)oc12 (stereo not drawn) |  | inactive: 17.4% |
| COc1ccc(OC)c(-c2nc(C(=O)NCC3CCCO3)cc3c2[nH]c2ccccc23)c1 (stereo not drawn) | inconclusive: 32.6 µM [cytotoxic, single point] |  |
| COc1ccc(CNC(=O)COc2ccccc2C(=O)c2cnn(-c3ccccc3)c2)cc1OC | inconclusive: 23.1 µM [cytotoxic, single point] |  |
| COc1ccccc1NC(=O)CSc1nnnn1-c1ccc2c(c1)OCO2 | inconclusive: 23.1 µM [cytotoxic, single point] |  |

| Compound | Potency | activity change, negative = cytotoxicity |
| --- | --- | --- |
| O=C(OC1CCOC1=O)C1CCN(S(=O)(=O)c2ccc(Cl)c(C(F)(F)F)c2)CC1 (stereo not drawn) | inconclusive: 25.9 µM [rising, partial curve, poor fit] |  |
| COc1cccc(CNC(=O)C2CCN(S(=O)(=O)c3cccc4nonc34)CC2)c1 | inconclusive: 6.51 µM [cytotoxic, partial curve, poor fit] |  |
| COc1ccc(S(=O)(=O)N2CCOCC2)cc1NC(=O)CN1CCCCCC1 | inconclusive: 16.4 µM [cytotoxic, single point] |  |
| CC1(NC(=S)Nc2ccccc2)CCS(=O)(=O)C1 (stereo not drawn) |  | inactive: 7.74% |
| CCc1ccc2c(c1)C(O)(CC(=O)c1cccs1)C(=O)N2 (stereo not drawn) |  | inconclusive: 32.2% |
| C/C(CC(=O)Nc1cc(Cl)ccc1C)=N\NC(N)=O | inconclusive: 10.3 µM [rising, partial curve, poor fit] |  |
| COc1cccc(NC(=O)CN(C)C(=O)c2cc(-c3ccccc3)nn2-c2ccccc2)c1 |  | inactive: -13.6% |
| CCOC(=O)c1c(S(=O)(=O)N2CCN(C3CCCCC3)CC2)c(C)n(C)c1C | inconclusive: 32.6 µM [cytotoxic, single point] |  |
| Cc1ccc(N2C(=O)C3C4C=CC(CNC(=S)Nc5cccc(Cl)c5)(O4)C3C2=O)cc1 (stereo not drawn) | active: 11.6 µM |  |
| O=S(=O)(c1ccccc1)c1nc(Nc2ccccc2N2CCOCC2)sc1Cl | active: 20.6 µM |  |
| CCN1CCN(C(=O)C(=O)c2c(C)[nH]c3ccccc23)CC1 | inconclusive: 20.6 µM [rising, single point] |  |
| Cc1c2ccccc2nc2ccccc12 |  | inactive: -1.38% |
| Cc1sc2ncn(CC(=O)NCC(=O)N(C)Cc3ccccc3)c(=O)c2c1C |  | inactive: -3.55% |
| COc1ccccc1C(=O)Nc1ccc(S(=O)(=O)Nc2cc(C)nc(C)n2)cc1 | inconclusive: 25.9 µM [cytotoxic, single point] |  |
| COc1cc(OC)c(OC)cc1CNC(=O)c1ccc(COc2ccccc2)cc1 | active: 11.6 µM |  |
| CCCN1C(=O)/C(=C/c2ccc(C)s2)SC1=Nc1ccc(OC)cc1 | inconclusive: 23.1 µM [cytotoxic, single point] |  |
| Brc1ccc(-c2nnc3sc(CN4CCN(c5ccccc5)CC4)cn23)cc1 | inconclusive: 2.31 µM [cytotoxic, full curve] |  |
| Cc1nn(-c2ccccc2)c(Cl)c1C(=O)N1CCN(c2ncnc3c2cnn3-c2ccccc2)CC1 | inconclusive: 10.3 µM [cytotoxic, partial curve, poor fit] |  |
| CCC(=O)Oc1ccc(-c2nc(-c3cccnc3)no2)cc1 | inconclusive: 16.4 µM [cytotoxic, single point] |  |
| O=C(CN1CCCCCCC1)NC(=O)NC1CCCCC1 | inconclusive: 11.6 µM [cytotoxic, partial curve] |  |
| Cc1ccc(C2=N/C(=C\c3cccs3)C(=O)N2Nc2ccccc2)cc1 | inconclusive: 16.4 µM [cytotoxic, single point] |  |
| CCOc1cc(N2CCOCC2)c(OCC)cc1NC(=O)CSc1ncccn1 | inconclusive: 29.1 µM [cytotoxic, single point] |  |
| Cc1ccc(-c2cc(C(=O)Nc3ccc4c(c3)OCCO4)c3ccccc3n2)cc1 | inconclusive: 29.1 µM [cytotoxic, partial curve, poor fit] |  |

Reference: PubChem BioAssay AID1347076 (National Center for Advancing Translational Sciences (NCATS), 2019)
